Laboratory results as given in article PMC3547041.
Results are given in words; binding and its absence hold for the method and conditions named. Binding seen in cells or lysates may run through a third protein. Some binding calls cover weakened binding; strength is not graded here.

The chains behind the UniProt entries cited, without tags or fusion partners.
UniProt P19812: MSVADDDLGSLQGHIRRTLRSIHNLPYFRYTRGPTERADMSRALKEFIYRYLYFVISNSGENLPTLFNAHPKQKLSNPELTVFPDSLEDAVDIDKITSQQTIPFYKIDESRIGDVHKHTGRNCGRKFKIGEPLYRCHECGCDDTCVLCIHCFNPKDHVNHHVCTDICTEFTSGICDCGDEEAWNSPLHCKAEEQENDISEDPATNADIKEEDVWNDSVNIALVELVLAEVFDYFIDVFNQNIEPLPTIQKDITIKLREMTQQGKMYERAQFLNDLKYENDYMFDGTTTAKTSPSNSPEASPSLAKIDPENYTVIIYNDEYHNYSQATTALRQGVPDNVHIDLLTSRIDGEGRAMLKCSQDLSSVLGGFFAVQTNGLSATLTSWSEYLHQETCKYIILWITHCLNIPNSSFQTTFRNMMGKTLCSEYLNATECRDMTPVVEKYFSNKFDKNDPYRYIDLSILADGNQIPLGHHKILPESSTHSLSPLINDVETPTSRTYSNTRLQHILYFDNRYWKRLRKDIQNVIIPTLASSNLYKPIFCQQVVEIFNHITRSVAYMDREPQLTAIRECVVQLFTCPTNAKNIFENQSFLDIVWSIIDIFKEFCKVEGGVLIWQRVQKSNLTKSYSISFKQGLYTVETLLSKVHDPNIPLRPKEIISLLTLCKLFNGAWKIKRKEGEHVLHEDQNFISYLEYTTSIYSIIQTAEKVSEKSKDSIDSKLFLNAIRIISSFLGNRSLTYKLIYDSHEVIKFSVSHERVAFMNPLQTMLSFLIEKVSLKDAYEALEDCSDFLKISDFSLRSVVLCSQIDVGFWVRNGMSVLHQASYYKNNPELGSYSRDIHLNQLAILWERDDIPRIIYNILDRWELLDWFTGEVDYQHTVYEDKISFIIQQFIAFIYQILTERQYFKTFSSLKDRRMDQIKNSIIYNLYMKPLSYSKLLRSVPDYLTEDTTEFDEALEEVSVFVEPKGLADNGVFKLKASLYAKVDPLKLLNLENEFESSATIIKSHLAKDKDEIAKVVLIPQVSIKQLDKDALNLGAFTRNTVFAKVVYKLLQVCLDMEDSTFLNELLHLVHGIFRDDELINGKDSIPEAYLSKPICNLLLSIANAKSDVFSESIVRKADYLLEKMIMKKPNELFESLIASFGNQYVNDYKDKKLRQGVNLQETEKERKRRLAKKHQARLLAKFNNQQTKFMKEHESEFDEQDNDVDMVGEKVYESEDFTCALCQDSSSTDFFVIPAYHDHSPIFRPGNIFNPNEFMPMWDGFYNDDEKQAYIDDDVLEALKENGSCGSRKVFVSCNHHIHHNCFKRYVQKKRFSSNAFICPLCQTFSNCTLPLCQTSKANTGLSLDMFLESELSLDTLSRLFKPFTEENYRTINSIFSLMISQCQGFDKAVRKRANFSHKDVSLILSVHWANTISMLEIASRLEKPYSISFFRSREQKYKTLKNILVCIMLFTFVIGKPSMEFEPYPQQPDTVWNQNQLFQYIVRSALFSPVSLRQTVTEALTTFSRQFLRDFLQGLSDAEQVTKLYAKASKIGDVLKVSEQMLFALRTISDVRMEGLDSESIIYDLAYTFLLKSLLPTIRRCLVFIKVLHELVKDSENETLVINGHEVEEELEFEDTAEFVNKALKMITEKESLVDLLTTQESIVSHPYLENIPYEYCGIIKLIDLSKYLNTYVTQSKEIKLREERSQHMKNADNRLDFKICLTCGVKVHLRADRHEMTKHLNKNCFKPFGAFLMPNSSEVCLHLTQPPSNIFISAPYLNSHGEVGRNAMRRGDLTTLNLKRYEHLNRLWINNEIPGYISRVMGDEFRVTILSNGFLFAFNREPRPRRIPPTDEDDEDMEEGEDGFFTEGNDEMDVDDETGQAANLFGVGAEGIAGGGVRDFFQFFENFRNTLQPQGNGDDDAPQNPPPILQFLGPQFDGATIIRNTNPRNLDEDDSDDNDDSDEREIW
UniProt P10591: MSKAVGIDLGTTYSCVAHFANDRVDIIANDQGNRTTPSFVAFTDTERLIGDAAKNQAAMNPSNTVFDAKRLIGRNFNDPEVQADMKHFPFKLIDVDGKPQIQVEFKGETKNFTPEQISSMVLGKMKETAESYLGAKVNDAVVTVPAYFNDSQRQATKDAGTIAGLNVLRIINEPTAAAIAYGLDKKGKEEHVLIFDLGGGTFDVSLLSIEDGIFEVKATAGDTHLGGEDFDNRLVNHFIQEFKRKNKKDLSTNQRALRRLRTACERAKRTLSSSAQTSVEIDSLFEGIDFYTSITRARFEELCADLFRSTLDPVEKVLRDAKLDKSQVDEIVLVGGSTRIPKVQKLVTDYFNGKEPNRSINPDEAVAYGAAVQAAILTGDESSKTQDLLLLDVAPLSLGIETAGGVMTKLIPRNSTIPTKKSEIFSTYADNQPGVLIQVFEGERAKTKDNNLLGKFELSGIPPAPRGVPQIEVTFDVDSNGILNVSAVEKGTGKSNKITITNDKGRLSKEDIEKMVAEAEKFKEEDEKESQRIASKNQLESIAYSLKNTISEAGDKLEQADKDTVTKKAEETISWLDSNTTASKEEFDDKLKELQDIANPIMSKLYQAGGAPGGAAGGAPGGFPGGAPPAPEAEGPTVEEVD

Target: Flag-Ubr1 (S. cerevisiae) (UniProt P19812)
Experiment: co-IP; Flag-Ubr1 isolated from yeast cell extracts under native conditions via FLAG affinity resin, bound material eluted with FLAG peptide, immunoblotting

binding	Molecule
binds	Hsp70 Ssa1 (from UniProt P10591 1-642)
binds	Type II Hsp40 Sis1 (protein, UniProt P25294 1-352) MVKETKLYDLLGVSPSANEQELKKGYRKAALKYHPDKPTGDTEKFKEISEAFEILNDPQKREIYDQYGLEAARSGGPSFGPGGPGGAGGAGGFPGGAGGFSGGHAFSNEDAFNIFSQFFGGSSPFGGADDSGFSFSSYPSGGGAGMGGMPGGMGGMHGGMGGMPGGFRSASSSPTYPEEETVQVNLPVSLEDLFVGKKKSFKIGRKGPHGASEKTQIDIQLKPGWKAGTKITYKNQGDYNPQTGRRKTLQFVIQEKSHPNFKRDGDDLIYTLPLSFKESLLGFSKTIQTIDGRTLPLSRVQPVQPSQTSTYPGQGMPTPKNPSQRGNLIVKYKVDYPISLNDAQKRAIDENF
